# Laboratory results reported in the supplement of paper PMC8728848.
# This is one part of the list.
# B1: MXA PilAct-eGFP (Myxococcus xanthus), Q59589 (protein)
# chain: MRVSRFNPRNRGFTLIELMIVVAIIGILAAIAIPNFIKFQARSKQSEAKTNLKALYTAQKSFFSEKDRYSDFANEIGFAPERGNRYGYRVSAAAGDCEVRNAADLPVPAAGVPCISNDSFRFGANSAIDDPTPVVARFVPQGAAGWNTTLGVQPTIADCPNCNFFAGARGNADNEATFDDWVIAGFEGSGQVGPCSEAGNVASGTPYNTRNDVACDGAAQ
# Columns and labels:
# Test in all cases: glycan array binding signal (z-score within array); higher = stronger binding
# Details in all cases: glycan notation: IUPAC condensed, linker removed
# GlcNAc(b1-3)Gal(b1-4)Glc = biological target: GlcNAc(b1-3)Gal(b1-4)Glc
# In short: (§1)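 The binding signal is a Z-score computed within each array and averaged over linkers. Arrays of the same protein sequence at different concentrations or buffers were also averaged together. Data originate from 3228 arrays in the Consortium for Functional Glycomics database, kept only where the protein sequence was available.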
# [1] = biological target: GlcNAc(b1-3)Gal(b1-4)GlcNAc
# In short: as §1
# [2] = biological target: GlcNAc(b1-3)Gal(b1-4)GlcNAc(b1-2)Man(a1-3)[GlcNAc(b1-3)Gal(b1-4)GlcNAc(b1-2)Man(a1-6)]Man(b1-4)GlcNAc(b1-4)GlcNAc
# In short: as §1
# [3] = biological target: GlcNAc(b1-3)Gal(b1-4)GlcNAc(b1-2)Man(a1-3)[GlcNAc(b1-3)Gal(b1-4)GlcNAc(b1-2)Man(a1-6)]Man(b1-4)GlcNAc(b1-4)[Fuc(a1-6)]GlcNAc
# In short: as §1
# [4] = biological target: GlcNAc(b1-3)Gal(b1-4)GlcNAc(b1-2)[GlcNAc(b1-3)Gal(b1-4)GlcNAc(b1-6)]Man(a1-6)[GlcNAc(b1-3)Gal(b1-4)GlcNAc(b1-2)Man(a1-3)]Man(b1-4)GlcNAc(b1-4)GlcNAc
# In short: as §1
# [5] = biological target: GlcNAc(b1-3)Gal(b1-4)GlcNAc(b1-3)Gal(b1-4)GlcNAc
# In short: as §1
# [6] = biological target: GlcNAc(b1-3)Gal(b1-4)GlcNAc(b1-3)Gal(b1-4)GlcNAc(b1-2)Man(a1-3)[GlcNAc(b1-3)Gal(b1-4)GlcNAc(b1-3)Gal(b1-4)GlcNAc(b1-2)Man(a1-6)]Man(b1-4)GlcNAc(b1-4)GlcNAc
# In short: as §1
# [7] = biological target: GlcNAc(b1-3)Gal(b1-4)GlcNAc(b1-3)Gal(b1-4)GlcNAc(b1-2)Man(a1-3)[GlcNAc(b1-3)Gal(b1-4)GlcNAc(b1-3)Gal(b1-4)GlcNAc(b1-2)Man(a1-6)]Man(b1-4)GlcNAc(b1-4)[Fuc(a1-6)]GlcNAc
# In short: as §1
# [8] = biological target: GlcNAc(b1-3)Gal(b1-4)GlcNAc(b1-3)Gal(b1-4)GlcNAc(b1-2)[GlcNAc(b1-3)Gal(b1-4)GlcNAc(b1-3)Gal(b1-4)GlcNAc(b1-6)]Man(a1-6)[GlcNAc(b1-3)Gal(b1-4)GlcNAc(b1-3)Gal(b1-4)GlcNAc(b1-2)Man(a1-3)]Man(b1-4)GlcNAc(b1-4)[Fuc(a1-6)]GlcNAc
# In short: as §1
# [9] = biological target: GlcNAc(b1-3)Gal(b1-4)GlcNAc(b1-3)Gal(b1-4)GlcNAc(b1-3)Gal(b1-4)GlcNAc(b1-2)Man(a1-3)[GlcNAc(b1-3)Gal(b1-4)GlcNAc(b1-3)Gal(b1-4)GlcNAc(b1-3)Gal(b1-4)GlcNAc(b1-2)Man(a1-6)]Man(b1-4)GlcNAc(b1-4)GlcNAc
# In short: as §1
# [10] = biological target: GlcNAc(b1-3)Gal(b1-4)GlcNAc(b1-3)Gal(b1-4)GlcNAc(b1-3)Gal(b1-4)GlcNAc(b1-2)Man(a1-3)[GlcNAc(b1-3)Gal(b1-4)GlcNAc(b1-3)Gal(b1-4)GlcNAc(b1-3)Gal(b1-4)GlcNAc(b1-2)Man(a1-6)]Man(b1-4)GlcNAc(b1-4)[Fuc(a1-6)]GlcNAc
# In short: as §1
# [11] = biological target: GlcNAc(b1-3)Gal(b1-4)GlcNAc(b1-3)Gal(b1-4)GlcNAc(b1-3)Gal(b1-4)GlcNAc(b1-2)[GlcNAc(b1-3)Gal(b1-4)GlcNAc(b1-3)Gal(b1-4)GlcNAc(b1-3)Gal(b1-4)GlcNAc(b1-6)]Man(a1-6)[GlcNAc(b1-3)Gal(b1-4)GlcNAc(b1-3)Gal(b1-4)GlcNAc(b1-3)Gal(b1-4)GlcNAc(b1-2)Man(a1-3)]Man(b1-4)GlcNAc(b1-4)[Fuc(a1-6)]GlcNAc
# In short: as §1
# [12] = biological target: GlcNAc(b1-3)Gal(b1-4)GlcNAc(b1-3)Gal(b1-4)GlcNAc(b1-3)Gal(b1-4)GlcNAc(b1-3)Gal(b1-4)GlcNAc(b1-2)Man(a1-3)[GlcNAc(b1-3)Gal(b1-4)GlcNAc(b1-3)Gal(b1-4)GlcNAc(b1-3)Gal(b1-4)GlcNAc(b1-3)Gal(b1-4)GlcNAc(b1-2)Man(a1-6)]Man(b1-4)GlcNAc(b1-4)GlcNAc
# In short: as §1
# [13] = biological target: GlcNAc(b1-3)Gal(b1-4)GlcNAc(b1-3)Gal(b1-4)GlcNAc(b1-3)Gal(b1-4)GlcNAc(b1-3)Gal(b1-4)GlcNAc(b1-2)Man(a1-3)[GlcNAc(b1-3)Gal(b1-4)GlcNAc(b1-3)Gal(b1-4)GlcNAc(b1-3)Gal(b1-4)GlcNAc(b1-3)Gal(b1-4)GlcNAc(b1-2)Man(a1-6)]Man(b1-4)GlcNAc(b1-4)[Fuc(a1-6)]GlcNAc
# In short: as §1
# [14] = biological target: GlcNAc(b1-3)Gal(b1-4)GlcNAc(b1-3)Gal(b1-4)GlcNAc(b1-3)Gal(b1-4)GlcNAc(b1-3)Gal(b1-4)GlcNAc(b1-2)[GlcNAc(b1-3)Gal(b1-4)GlcNAc(b1-3)Gal(b1-4)GlcNAc(b1-3)Gal(b1-4)GlcNAc(b1-3)Gal(b1-4)GlcNAc(b1-6)]Man(a1-6)[GlcNAc(b1-3)Gal(b1-4)GlcNAc(b1-3)Gal(b1-4)GlcNAc(b1-3)Gal(b1-4)GlcNAc(b1-3)Gal(b1-4)GlcNAc(b1-2)Man(a1-3)]Man(b1-4)GlcNAc(b1-4)[Fuc(a1-6)]GlcNAc
# In short: as §1
# [15] = biological target: GlcNAc(b1-3)Gal(b1-4)GlcNAc(b1-3)Gal(b1-4)GlcNAc(b1-3)GalNAc
# In short: as §1
# [16] = biological target: GlcNAc(b1-3)Gal(b1-4)GlcNAc(b1-3)GalNAc
# In short: as §1
# [17] = biological target: GlcNAc(b1-3)Gal(b1-4)GlcNAc(b1-3)[GlcNAc(b1-3)Gal(b1-4)GlcNAc(b1-3)]GalNAc
# In short: as §1
# [18] = biological target: GlcNAc(b1-3)Gal(b1-4)GlcNAc(b1-6)[Gal(b1-3)]GalNAc
# In short: as §1
# [19] = biological target: GlcNAc(b1-3)Gal(b1-4)GlcNAc(b1-6)[GlcNAc(b1-3)Gal(b1-3)]GalNAc
# In short: as §1
# [20] = biological target: GlcNAc(b1-3)Gal(b1-4)GlcNAc(b1-6)[GlcNAc(b1-3)]Gal(b1-4)GlcNAc
# In short: as §1
# GlcNAc(b1-3)GalNAc = biological target: GlcNAc(b1-3)GalNAc
# In short: as §1
# GlcNAc(b1-3)Man = biological target: GlcNAc(b1-3)Man
# In short: as §1
# [21] = biological target: GlcNAc(b1-3)[GlcNAc(b1-4)][GlcNAc(b1-6)]GlcNAc
# In short: as §1
# [22] = biological target: GlcNAc(b1-3)[GlcNAc(b1-6)]Gal(b1-4)GlcNAc
# In short: as §1
# [23] = biological target: GlcNAc(b1-3)[GlcNAc(b1-6)]GalNAc
# In short: as §1
# [24] = biological target: GlcNAc(b1-4)Gal(b1-4)GlcNAc
# In short: as §1
# GlcNAc(b1-4)GlcNAc = biological target: GlcNAc(b1-4)GlcNAc
# In short: as §1
# [25] = biological target: GlcNAc(b1-4)GlcNAc(b1-4)GlcNAc
# In short: as §1
# [26] = biological target: GlcNAc(b1-4)GlcNAc(b1-4)GlcNAc(b1-4)GlcNAc(b1-4)GlcNAc
# In short: as §1
# [27] = biological target: GlcNAc(b1-4)GlcNAc(b1-4)GlcNAc(b1-4)GlcNAc(b1-4)GlcNAc(b1-4)GlcNAc
# In short: as §1
# [28] = biological target: GlcNAc(b1-4)[GlcNAc(b1-6)]GalNAc
# In short: as §1
# [29] = biological target: GlcNAc(b1-6)Gal(b1-4)GlcNAc
# In short: as §1
# GlcNAc(b1-6)GalNAc = biological target: GlcNAc(b1-6)GalNAc
# In short: as §1
# [30] = biological target: GlcNAc6S(b1-3)Gal(b1-4)GlcNAc
# In short: as §1
# Kdn(a2-3)Gal(b1-3)GalNAc = biological target: Kdn(a2-3)Gal(b1-3)GalNAc
# In short: as §1
# Kdn(a2-3)Gal(b1-3)GlcNAc = biological target: Kdn(a2-3)Gal(b1-3)GlcNAc
# In short: as §1
# Kdn(a2-3)Gal(b1-4)Glc = biological target: Kdn(a2-3)Gal(b1-4)Glc
# In short: as §1
# Kdn(a2-3)Gal(b1-4)GlcNAc = biological target: Kdn(a2-3)Gal(b1-4)GlcNAc
# In short: as §1
# [31] = biological target: Kdn(a2-3)Gal(b1-4)[Fuc(a1-3)]GlcNAc
# In short: as §1
# Kdn(a2-6)Gal(b1-4)GlcNAc = biological target: Kdn(a2-6)Gal(b1-4)GlcNAc
# In short: as §1
# [32] = biological target: Man(a1-2)Man(a1-2)Man(a1-3)Man
# In short: as §1
# [33] = biological target: Man(a1-2)Man(a1-2)Man(a1-6)[Man(a1-3)]Man
# In short: as §1
# Man(a1-2)Man(a1-3)Man = biological target: Man(a1-2)Man(a1-3)Man
# In short: as §1
# [34] = biological target: Man(a1-2)Man(a1-3)[Man(a1-2)Man(a1-6)]Man
# In short: as §1
binder,measurement,setting,value
B1,glycan array binding signal (z-score),GlcNAc(b1-3)Gal(b1-4)Glc,-0.062
same,glycan array binding signal (z-score),[1],-0.363
same,glycan array binding signal (z-score),[2],-0.064
same,glycan array binding signal (z-score),[3],0.04
same,glycan array binding signal (z-score),[4],-0.007
same,glycan array binding signal (z-score),[5],0.474
same,glycan array binding signal (z-score),[6],-0.438
same,glycan array binding signal (z-score),[7],0.175
same,glycan array binding signal (z-score),[8],1.33
same,glycan array binding signal (z-score),[9],3.99
same,glycan array binding signal (z-score),[10],2
same,glycan array binding signal (z-score),[11],1.01
same,glycan array binding signal (z-score),[12],0.674
same,glycan array binding signal (z-score),[13],2.14
same,glycan array binding signal (z-score),[14],3.85
same,glycan array binding signal (z-score),[15],0.384
same,glycan array binding signal (z-score),[16],-0.567
same,glycan array binding signal (z-score),[17],-0.168
same,glycan array binding signal (z-score),[18],-0.939
same,glycan array binding signal (z-score),[19],-0.657
same,glycan array binding signal (z-score),[20],0.234
same,glycan array binding signal (z-score),GlcNAc(b1-3)GalNAc,-0.983
same,glycan array binding signal (z-score),GlcNAc(b1-3)Man,-0.861
same,glycan array binding signal (z-score),[21],-0.095
same,glycan array binding signal (z-score),[22],1.16
same,glycan array binding signal (z-score),[23],0.014
same,glycan array binding signal (z-score),[24],0.606
same,glycan array binding signal (z-score),GlcNAc(b1-4)GlcNAc,0.091
same,glycan array binding signal (z-score),[25],0.101
same,glycan array binding signal (z-score),[26],-0.618
same,glycan array binding signal (z-score),[27],0.147
same,glycan array binding signal (z-score),[28],-1.04
same,glycan array binding signal (z-score),[29],0.394
same,glycan array binding signal (z-score),GlcNAc(b1-6)GalNAc,-0.63
same,glycan array binding signal (z-score),[30],-0.184
same,glycan array binding signal (z-score),Kdn(a2-3)Gal(b1-3)GalNAc,-0.538
same,glycan array binding signal (z-score),Kdn(a2-3)Gal(b1-3)GlcNAc,0.462
same,glycan array binding signal (z-score),Kdn(a2-3)Gal(b1-4)Glc,-1.21
same,glycan array binding signal (z-score),Kdn(a2-3)Gal(b1-4)GlcNAc,-0.846
same,glycan array binding signal (z-score),[31],-1.11
same,glycan array binding signal (z-score),Kdn(a2-6)Gal(b1-4)GlcNAc,-0.849
same,glycan array binding signal (z-score),[32],-0.247
same,glycan array binding signal (z-score),[33],-0.615
same,glycan array binding signal (z-score),Man(a1-2)Man(a1-3)Man,0.412
same,glycan array binding signal (z-score),[34],-0.808

# 3 entries from above, as tab-separated lines:
binder	measurement	setting	value
B1	glycan array binding signal (z-score)	[12]	0.674
same	glycan array binding signal (z-score)	[17]	-0.168
same	glycan array binding signal (z-score)	Kdn(a2-3)Gal(b1-3)GalNAc	-0.538
